Not every detail of the peptide structures is certain; ends, links or a residue may be inferred. Peptide text beside a SMILES is read from it.
What was measured:
laminin-5 = experiment: Laminin-5 synthesis by keratinocytes, immunofluorescence; assay type: cell-based; conditions: human keratinocytes HaCat; 10 M peptide; 48 hours; vs control composition without peptide
integrin β1 = experiment: Integrin β1 synthesis by keratinocytes, immunofluorescence; assay type: cell-based; conditions: human keratinocytes HaCat; 10 M peptide; 48 hours; vs control composition without peptide
[1] = Stability of the peptide by HPLC at various temperatures; assay type: physicochemical; conditions: 10^-4 M; after 24 hours at 25° C., 37° C. and 60° C.
Description: The Peptide Lys-Leu-Asp-Ala-Pro-Thr was analyzed with a concentration of 10^-4 M by HPLC on a column of the C18 type, and with a linear gradient water/TFA 0.1%-acetonitril/TFA 0.1%.

keratinocytes = experiment: Adhesion of keratinocytes to pre-treated 96 wells micro-plates (MTT, OD 560 nm against 630 nm); assay type: cell-based
Description: The study is carried out in 96 wells micro-plates on keratinocytes cultured in an incubator at 37° C. and 5% of CO2.
The wells of these plates are pre-treated, for 12 hours, in different ways; four conditions have been realized:
Condition A: negative control, not containing peptide;
Condition B: incubated with various peptides, made up from 3 to 25 amino acids, with a concentration of 35 ppm;
Condition C: incubated with fibronectin with a concentration of 50 ppm;
Condition D: incubated with the peptide of sequence Lys-Leu-Asp-Ala-Pro-Thr to a concentration of 5 ppm.
After 3 hours of contact with the keratinocytes, the wells are completely filled with medium, hermetically closed, turned over and agitated on a three-dimensional agitator during 20 minutes. Then the plates are emptied and the remaining medium is aspired. Then, 100 μl of MTT with 1 mg/ml are added by wells and are left for 3 hours at 37° C. and 5% CO2. The solution is finally withdrawn, then 100 μl of DMSO is added. A reading of the OD is made at 560 nm against 630 nm.
The OD is proportional to the quantity of viable cells, i.e. which adhered to the micro-plates.

CC(C)C[C@H](NC(=O)[C@@H](N)CCCCN)C(=O)N[C@@H](CC(=O)O)C(=O)N[C@@H](C)C(=O)N1CCC[C@H]1C(=O)N[C@H](C(=O)O)[C@@H](C)O [Lys-Leu-Asp-Ala-Pro-Thr] (H-KLDAPT-OH; N-terminus and C-terminus assumed)
laminin-5 synthesis (intensity of fluorescence) (laminin-5): increases laminin-5 synthesis | integrin β1 synthesis (intensity of fluorescence) (integrin β1): integrin β1 synthesis | decomposition of peptide (HPLC) [1]: no decomposition of peptide was observed | cell adhesion (in words) (keratinocytes; 5 ppm, 3 hours of contact with keratinocytes, compared with fibronectin at 50 ppm): good cell adhesion, similar to that of the fibronectin | O.D. (adhered viable cells) (keratinocytes; Condition D: wells pre-treated 12 hours at 5 ppm, 3 hours contact with keratinocytes): 0.78
